Laboratory results: patent US20220133747A1, “ESTROGEN RECEPTOR INHIBITORS AND USES THEROF” (The Regents of the University of California, priority 2018, published 2022)
Entries after “also recorded” stand apart in the source; their conditions may differ. At least one structure is not confirmed: it was looked up by name or label, or the drawing left a doubt.

Columns and labels:
[1] = test system: 4T1 triple negative breast cancer cells; experiment: 4T1 cell proliferation in vitro, Incucyte live-cell confluence; format: cell-based, mouse; conditions: vs control-treated 4T1 cells, 5 days
Method: FIGS. 23A-23C show estrogen effects on ERα negative tumor growth in vitro and in vivo. […] Female 6-wk-old BALB/c mice, either ovariectomized (ovx) or sham-operated (intact), were inoculated s.c. with 2×10^5 4T1 TNBC cells. Tumor growth was then assessed every 3 days, with tumor volume calculated as V=(l×w×w)/2. ****P≤0.0001. […] 4T1 cells were grown in the presence (+E2) or absence (−E2) of estradiol-17β and increasing concentrations of SERD128 at 10 nM (128-10), 100 nM (128-100) or 1000 nM (128-1000). Cell proliferation was assessed using the Incucyte S3 Live-Cell Analysis system with pictures obtained every 4-6 hours. […] Tumors were measured every 3 days, and tumor volume was calculated as V=(W(2)×L)/2). **P<0,01, ****P<0.0001 as compared to control group. n=11-12.
MCF-7 and other selected BC cells were seeded in 96-well plates at […] in complete medium. […] Cell number and viability were determined by either cell counts or by colorimetric assays using the CELLTITER 96 AQUEOUS (Promega) assay or the cell proliferation ELISA BrdU assay (Roche) as per manufacturer's instructions. […] In selected experiments using the INCUCYTE™ Live Cell System (Essen Bioscience) as per the manufacturer's instructions, the proliferation of 4T1 cells maintained in a tissue culture incubator was monitored by using the NucLight Rapid Red Reagent for cell labeling in 6-well plates. […]

[2] = test system: myeloid-derived suppressor cells (MDSC); experiment: Expansion of human MDSC from bone marrow of BC patients, flow cytometry; format: cell-based; conditions: 100 nM estradiol-17β added to estrogen-depleted medium (EFM+E2)
Description: Bone Marrow cells from three breast cancer patients were purified by established methods including red blood cell lysis and Ficoll gradients (1-3,5, 5-7) and then cultured in the presence of IL-6 and GM-CSF in either estrogen-free medium (EFM), normal medium with control vehicle (NM) (which contains estrogens), normal medium with 1-μM fulvestrant (NM+FULV) or normal medium with 1-μM S128 (NM+S128). After 5 days, myeloid-derived cell populations were then identified by following the gating strategy of Ruffell et al. (2) as modified by Svoronos et al. (1). A) Percentage of total MDSC within CD45^+ population.
Total number of human MDSC derived from bone marrow (BM) of three of three BC patients (P<0.05). Cells were incubated in the presence of GM-CSF and IL-6 for 6 days in either regular RPMI medium+15% FBS (NM) (contains estrogens) or in phenol red-free medium with 15% charcoal coated-dextran treated FBS (EFM)(estrogen-depleted) with or without the addition of 100 nM estradiol-17β (EFM+E2). […]
Human myeloid-derived suppressor cells were expanded from bone marrow (BM) specimens of BC patients after standard Ficoll gradient purification and red blood cell lysis. […] After 6 days of culture, cells were harvested, stained with a 14 antibody panel including anti-phospho-STAT3 (pSTAT3) and analyzed by flow cytometry with an LSRII with a 5 lasers (UV, violet, blue, green-yellow and red). […]

## C[C@]12CC[C@@H]3c4ccc(O)cc4CC[C@H]3[C@@H]1CC[C@@H]2O [E2, estradiol-17β, reference compound]
[1]
  4T1 cell growth (cell confluence) in the presence of E2: No growth stimulation
[2]
  total MDSC numbers, stimulation by estrogen: increases the percentage and total number of MDSC; also recorded: increases total numbers of MDSCs; also recorded: stimulates significant expansion of MDSC numbers
